Measurements: patent US20230357384A1
These are yes or no findings as the source states them, for the method shown. Some entries that bind do so weakly or less than the wild type. For part of these data: Sequences can lack the tags named with a protein.

Columns and labels:
[1] = biological target: T1, FLRT3-His monomeric fusion protein (Homo sapiens (Human)) (UniProt Q9NZU0); assay: Octet, FLRT3 antibodies and FLRT3 monomer
T1 sequence: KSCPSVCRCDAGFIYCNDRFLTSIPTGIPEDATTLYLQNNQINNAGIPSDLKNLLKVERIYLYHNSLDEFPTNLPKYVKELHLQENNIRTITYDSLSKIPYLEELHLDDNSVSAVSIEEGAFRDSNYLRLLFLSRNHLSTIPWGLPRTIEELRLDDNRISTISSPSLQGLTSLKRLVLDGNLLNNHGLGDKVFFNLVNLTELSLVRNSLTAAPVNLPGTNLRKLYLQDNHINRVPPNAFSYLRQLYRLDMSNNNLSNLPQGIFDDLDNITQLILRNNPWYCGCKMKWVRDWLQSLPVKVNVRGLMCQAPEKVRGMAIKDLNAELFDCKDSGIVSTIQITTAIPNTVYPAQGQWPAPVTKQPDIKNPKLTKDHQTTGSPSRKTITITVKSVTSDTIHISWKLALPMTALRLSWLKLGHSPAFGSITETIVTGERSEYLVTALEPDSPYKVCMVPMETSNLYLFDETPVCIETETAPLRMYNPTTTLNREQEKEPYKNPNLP

[2] = biological target: T1, FLRT3-His monomeric fusion protein (Homo sapiens (Human)); assay: Octet (FIG. 18)
[3] = biological target: human FLRT3 on cells (human) (UniProt Q9NZU0); assay: flow cytometry, A549 cells, 14B7 against Ctrl G4P
[4] = biological target: human FLRT3 on cells (human) (UniProt Q9NZU0); assay: flow cytometry, MCF7 cells, 14B7 against Ctrl G4P
[5] = biological target: human FLRT3 on cells (human) (UniProt Q9NZU0); assay: flow cytometry, SKOV3 cells, 14B7 against Ctrl G4P
[6] = biological target: human FLRT3 on cells (human) (UniProt Q9NZU0); assay: flow cytometry, SAOS2 cells, 14B7 against Ctrl G4P
[7] = biological target: human FLRT3 on cells (human) (UniProt Q9NZU0); assay: flow cytometry, 624 MEL cells, 14B7 against Ctrl G4P
[8] = biological target: human FLRT3 on cells (human) (UniProt Q9NZU0); assay: flow cytometry, HT29-OKT3 cells, 14B7 against Ctrl G4P
[9] = biological target: T1, FLRT3-His monomeric fusion protein (Homo sapiens (Human)); assay: kinetic affinity measurement with FLRT3-His monomer (Table 1)
[10] = biological target: T2, mouse FLRT3 on transiently transfected 293T cells (mouse) (UniProt Q8BGT1); assay: flow cytometry on mFLRT3 transfected cells (legend of FIG. 13)
T2 sequence: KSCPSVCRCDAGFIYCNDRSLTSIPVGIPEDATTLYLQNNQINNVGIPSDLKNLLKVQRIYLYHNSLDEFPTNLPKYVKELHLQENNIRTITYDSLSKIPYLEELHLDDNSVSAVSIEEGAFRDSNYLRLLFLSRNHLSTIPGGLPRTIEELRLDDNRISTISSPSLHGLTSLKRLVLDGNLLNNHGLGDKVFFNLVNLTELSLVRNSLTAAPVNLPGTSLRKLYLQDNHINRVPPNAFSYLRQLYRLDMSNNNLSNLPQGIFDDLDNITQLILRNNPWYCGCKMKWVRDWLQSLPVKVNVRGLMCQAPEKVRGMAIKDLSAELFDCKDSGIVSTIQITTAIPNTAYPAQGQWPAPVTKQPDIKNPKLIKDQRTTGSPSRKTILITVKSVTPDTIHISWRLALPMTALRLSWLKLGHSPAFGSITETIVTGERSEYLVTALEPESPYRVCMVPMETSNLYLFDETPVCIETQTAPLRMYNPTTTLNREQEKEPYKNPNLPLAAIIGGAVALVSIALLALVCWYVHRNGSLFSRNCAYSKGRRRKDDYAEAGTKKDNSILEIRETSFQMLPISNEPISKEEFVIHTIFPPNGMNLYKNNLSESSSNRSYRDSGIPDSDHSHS

[11] = biological target: human FLRT3 on cells (human) (UniProt Q9NZU0); assay: flow cytometry, HEK293T-OKT3 cells, 14B7 against Ctrl G4P
[12] = biological target: T2, mouse FLRT3 on transiently transfected 293T cells (mouse); assay: flow cytometry on 293T cells transiently transfected with mFLRT3
[13] = biological target: human FLRT3 on cells (human) (UniProt Q9NZU0); assay: flow cytometry (AF647 MFI), A549 cells with endogenous hFLRT3
[14] = biological target: human FLRT3 on cells (human) (UniProt Q9NZU0); assay: flow cytometry (AF647 MFI), FLRT3-293T-OKT3 cells, antibody titration
[15] = biological target: T2, mouse FLRT3 on transiently transfected 293T cells (mouse); assay: flow cytometry (AF647 MFI), transiently transfected mFLRT3-293T cells
[16] = biological target: human FLRT3 on cells (human) (UniProt Q9NZU0); assay: flow cytometry on A549 cells, MFI normalised to % of maximal response
[17] = biological target: T3, FLRT3-Fc (Homo sapiens (Human)) (UniProt Q9NZU0); assay: competition ELISA: FLRT3-Fc binding to coated UNC5A with titrated antibody
T3 sequence (chain, biotin label in Example 8 (site not stated)): T1 sequence

[18] = biological target: T3, FLRT3-Fc (Homo sapiens (Human)); assay: competition ELISA: FLRT3-Fc binding to coated UNC5B with titrated antibody
[19] = biological target: T3, FLRT3-Fc (Homo sapiens (Human)); assay: competition ELISA: FLRT3-Fc binding to coated UNC5C with titrated antibody
[20] = biological target: T3, FLRT3-Fc (Homo sapiens (Human)); assay: competition ELISA: FLRT3-Fc binding to coated UNC5D with titrated antibody
[21] = biological target: human FLRT3 on cells (human) (UniProt Q9NZU0); assay: non-linear regression fit of the normalised flow cytometry data, A549 cells
[22] = biological target: human FLRT3 on cells (human) (UniProt Q9NZU0); assay: flow cytometry on 293T-hFLRT3 cells, MFI normalised to % of maximal response
[23] = biological target: human FLRT3 on cells (human) (UniProt Q9NZU0); assay: non-linear regression fit of the normalised flow cytometry data, 293T-hFLRT3 cells
[24] = biological target: T3, FLRT3-Fc (Homo sapiens (Human)); assay: competition ELISA: FLRT3-Fc biotin binding to coated Unc5B-Fc with titrated antibody
[25] = biological target: T3, FLRT3-Fc (Homo sapiens (Human)); assay: competition ELISA: Unc5B-Fc biotin binding to coated FLRT3-Fc with titrated antibody
[26] = biological target: T3, FLRT3-Fc (Homo sapiens (Human)); assay: flow cytometry competition: FLRT3-Fc binding to Unc5B on cells with titrated antibody

Measured: binding

B1: 17A1 (antibody, V domains shown)
VH: EVQLQQSGPELVKPGASVKMSCKASGYTFTDYYMNWVKQSHGKSLEWIGRVNPSNGGTTYNQKFKGKATLTVDKSLSTAYMQLNSLTSEDSAVYYCARNFLMDYWGQGTSVTVSS
VL: DIVMTQSHKFMSTSVGDRVSITCKASQDVGTAVAWYQQKPGQSPKLLIYWASTRHTGVPDRFTGSGSGTDFALTISNVQSADLAYYFCQQYSNYPTFGGGTKLEIK
binds: [1]

B2: 14B7 (antibody, V domains shown)
VH: QVQLQQSGPELVKPGASVNISCKASGYAFGNSWMNWVKQRPGKGLEWIGWIYPGDGNANYNGKFKGKATLTADKSSSTAYMQLSSLTSEDSAVYFCARALYDYDGWFAYWGQGTLVTVSA
VL: DIQMNQSPSSLSASLGDTITIACRASQNIDIWLSWYQQKPGSIPKLLIYKASNLHTGVPSRFSGSGSGTDFTLTISSLQPEDIATYYCLQGQSFPFTFGSGTKLEIK
binds: all assays above
